Laboratory results from patent US20170189504A1, “NOVEL PEPTIDES AND COMBINATION OF PEPTIDES FOR USE IN IMMUNOTHERAPY AGAINST VARIOUS CANCERS” (immatics biotechnologies GmbH, priority 2015, published 2017).

What was measured:
source genes (mRNA) [1] = assay: Expression profiling of source genes by in-house RNASeq of tumor and normal tissues (Table 18, FIG. 2); parameters: species or system human; key: very highly over-expressed in tumors compared to a panel of normal tissues (+++); highly over-expressed in tumors compared to a panel of normal tissues (++); over-expressed in tumors compared to a panel of normal tissues (+); settings: source gene of peptide; for Expression score BRCA: BRCA tumors vs panel of normal tissues; for Expression score NHL: non-Hodgkin lymphoma (N = 10) vs panel of normal tissues; for Expression score NSCLC: non-small cell lung cancer (N = 11) vs panel of normal tissues; for Expression score SCLC: small cell lung cancer (N = 10) vs panel of normal tissues
HLA-A*24 = assay: Identification and relative LC-MS quantitation of HLA-A*24-presented tumor-associated peptides on tissue samples (presentation profiles, Tables 14A, 14B, 16, FIG. 1); parameters: species or system human; key to Presentation score GC / Presentation score NSCLC / Presentation score PCA / Presentation score GB / Presentation score HCC / Presentation score RCC: specifically presented on tumors (++++); very highly over-presented on tumors compared to a panel of normal tissues (+++); highly over-presented on tumors compared to a panel of normal tissues (++); over-presented on tumors compared to a panel of normal tissues (+); settings: for Presentation score GC: gastric cancer (N = 44) vs panel of normal tissues (N = 70); for Presentation score NSCLC: non-small cell lung cancer (N = 91) vs panel of normal tissues (N = 70); for Peptide Presentation on cancer entities: Table 14A, HLA-A*24-binding tumor-associated peptides, cancer entities on which the peptide was found presented
source genes (mRNA) [2] = assay: Gene and exon expression of source genes, TCGA tumor samples compared with normal tissue samples (Lonsdale, 2013) (Table 17); parameters: species or system human; settings: for Over-expression category of source gene (target coverage), DLBC: DLBC = Lymphoid neoplasm diffuse large B-cell lymphoma (N = 48); for Over-expression category of source gene (target coverage), LAML: LAML = Acute Myeloid Leukemia (N = 173); for Over-expression category of source gene (target coverage), SKCM: SKCM = Skin cutaneous melanoma (N = 473)

Substance: 164: peptide found in GZMK (gene looked up) (KFSSFSLFF; listed as Homo sapiens) [compound 164]
- Expression score BRCA (source genes (mRNA) [1]): +
- Expression score GBC_CCC (source genes (mRNA) [1]; gallbladder adenocarcinoma and cholangiocarcinoma (N = 3) vs panel of normal tissues): +
- Expression score NHL (source genes (mRNA) [1]): +
- Expression score NSCLC (source genes (mRNA) [1]): +
- Expression score PC (source genes (mRNA) [1]; pancreatic cancer (N = 26) vs panel of normal tissues): +
- Expression score RCC (source genes (mRNA) [1]; renal cell carcinoma (N = 10) vs panel of normal tissues): ++
- Expression score SCLC (source genes (mRNA) [1]): +
- number of cell lines where the peptide was found to be presented (HLA-A*24; FIG. 1, A*24 positive samples, cell lines include benign prostate hyperplasias): 2
- number of cancer tissues where the peptide was found to be presented (HLA-A*24; FIG. 1, A*24 positive samples, only samples with presentation shown): 14
- Presentation score GC (HLA-A*24; HLA-A*24 peptides): ++++
- Presentation score NSCLC (HLA-A*24; HLA-A*24 peptides): ++++
- Presentation score PCA (HLA-A*24; HLA-A*24 peptides, prostate cancer (N = 40) vs panel of normal tissues (N = 70)): ++++
- Peptide Presentation on cancer entities (HLA-A*24): GC, NSCLC, PCA
- Over-expression category of source gene (target coverage), DLBC (source genes (mRNA) [2]; same cutoff): A (>=50% of tumors above the cutoff)
- Over-expression category of source gene (target coverage), KIRC (source genes (mRNA) [2]; KIRC = Clear cell kidney carcinoma (N = 534), same cutoff): B (>= 20% of tumors above the cutoff, but <50%)
- Over-expression category of source gene (target coverage), LAML (source genes (mRNA) [2]; same cutoff): C (>=5% of tumors above the cutoff, but <20%)
- Over-expression category of source gene (target coverage), SKCM (source genes (mRNA) [2]; same cutoff): C (>=5% of tumors above the cutoff, but <20%)

Substance: 165: peptide found in SPAG5 (gene looked up) (DYTTWTALL; listed as Homo sapiens) [compound 165]
- Expression score BRCA (source genes (mRNA) [1]): +
- Expression score OSCAR (source genes (mRNA) [1]; esophageal cancer incl. gastric-esophageal junction (N = 11) vs panel of normal tissues): +
- Expression score GB (source genes (mRNA) [1]; glioblastoma (N = 24) vs panel of normal tissues): +
- Expression score NHL (source genes (mRNA) [1]): ++
- Expression score NSCLC (source genes (mRNA) [1]): +
- Expression score OC (source genes (mRNA) [1]; ovarian cancer (N = 12) vs panel of normal tissues): +
- Expression score SCLC (source genes (mRNA) [1]): ++
- Expression score UBC (source genes (mRNA) [1]; urinary bladder cancer (N = 10) vs panel of normal tissues): +
- Presentation score GC (HLA-A*24; HLA-A*24 peptides): ++++
- Presentation score NSCLC (HLA-A*24; HLA-A*24 peptides): ++++
- Peptide Presentation on cancer entities (HLA-A*24): GC, NSCLC
- Over-expression category of source gene (target coverage), BLCA (source genes (mRNA) [2]; BLCA = Bladder urothelial carcinoma (N = 408), same cutoff): B (>= 20% of tumors above the cutoff, but <50%)
- Over-expression category of source gene (target coverage), BRCA (source genes (mRNA) [2]; BRCA = Breast cancer (N = 1104), tumors more than 2-fold above highest 75% percentile of normal tissues): C (>=5% of tumors above the cutoff, but <20%)
- Over-expression category of source gene (target coverage), CHOL (source genes (mRNA) [2]; CHOL = Cholangiocarcinoma (N = 36), same cutoff): C (>=5% of tumors above the cutoff, but <20%)
- Over-expression category of source gene (target coverage), COAD (source genes (mRNA) [2]; COAD = Colon and rectal adenocarcinoma (N = 462), same cutoff): C (>=5% of tumors above the cutoff, but <20%)
- Over-expression category of source gene (target coverage), DLBC (source genes (mRNA) [2]; same cutoff): A (>=50% of tumors above the cutoff)
- Over-expression category of source gene (target coverage), ESCA (source genes (mRNA) [2]; ESCA = Esophageal cancer (N = 185), same cutoff): B (>= 20% of tumors above the cutoff, but <50%)
- Over-expression category of source gene (target coverage), GBM (source genes (mRNA) [2]; GBM = Glioblastoma multiforme (N = 169), same cutoff): C (>=5% of tumors above the cutoff, but <20%)
- Over-expression category of source gene (target coverage), LAML (source genes (mRNA) [2]; same cutoff): C (>=5% of tumors above the cutoff, but <20%)
- Over-expression category of source gene (target coverage), LIHC (source genes (mRNA) [2]; LIHC = Liver hepatocellular carcinoma (N = 374), same cutoff): C (>=5% of tumors above the cutoff, but <20%)
- Over-expression category of source gene (target coverage), LUAD (source genes (mRNA) [2]; LUAD = Lung adenocarcinoma (N = 517), same cutoff): C (>=5% of tumors above the cutoff, but <20%)
- Over-expression category of source gene (target coverage), LUSC (source genes (mRNA) [2]; LUSC = Lung squamous cell carcinoma (N = 503), same cutoff): B (>= 20% of tumors above the cutoff, but <50%)
- Over-expression category of source gene (target coverage), READ (source genes (mRNA) [2]; READ = Colon and rectal adenocarcinoma (N = 167), same cutoff): C (>=5% of tumors above the cutoff, but <20%)
- Over-expression category of source gene (target coverage), SKCM (source genes (mRNA) [2]; same cutoff): C (>=5% of tumors above the cutoff, but <20%)
- Over-expression category of source gene (target coverage), STAD (source genes (mRNA) [2]; STAD = Stomach adenocarcinoma (N = 415), same cutoff): C (>=5% of tumors above the cutoff, but <20%)
- Over-expression category of source gene (target coverage), UCEC (source genes (mRNA) [2]; UCEC = Uterine corpus endometrial carcinoma (N = 546), same cutoff): B (>= 20% of tumors above the cutoff, but <50%)

For some of these results: Expression values are those of the mRNA of the gene that encodes the peptide; a gene is named only where it was looked up.
